Laboratory results taken from patent publication US20250195520A1, “COMBINATION THERAPY USING A PTPN11 INHIBITOR AND AN EGFR INHIBITOR” (NAVIRE PHARMA, INC., priority 2021, published 2025).
Some of these results come from one statement about several compounds together.

System: DUSP6 mRNA in HCC827-ER1 tumors
Assay: In vivo pharmacodynamic assay, Taqman qRT-PCR of DUSP6 in HCC827-ER1 xenograft tumors
Design: species or system mouse
Details: across the three timepoints (best suppression), osimertinib 5 mg/kg, formula (10b) 100 mg/kg
Description: In vivo modeling, treatment and data analysis. […] Dosing started ˜3 weeks after the subcutaneous implantation of the tumor cells. Dosing volume was 5 mL/kg for each compound, and was adjusted based on individual mouse weight. Dosing and sample harvesting followed the schedule below. There was a 6-hour interval between the morning dose and the afternoon dose, and tumor/plasma samples were harvested at three timepoints during the 24-hour dosing cycle.

C=CC(=O)Nc1cc(Nc2nccc(-c3cn(C)c4ccccc34)n2)c(OC)cc1N(C)CCN(C)C [Osimertinib]
suppression of DUSP6 mRNA levels: less than 50%
